Among the data in paper PMC11167002 are binding values, retold here.

Protein sequences, listed by entry. Tags and fused reporters are not part of them.
UniProt Q8ND24: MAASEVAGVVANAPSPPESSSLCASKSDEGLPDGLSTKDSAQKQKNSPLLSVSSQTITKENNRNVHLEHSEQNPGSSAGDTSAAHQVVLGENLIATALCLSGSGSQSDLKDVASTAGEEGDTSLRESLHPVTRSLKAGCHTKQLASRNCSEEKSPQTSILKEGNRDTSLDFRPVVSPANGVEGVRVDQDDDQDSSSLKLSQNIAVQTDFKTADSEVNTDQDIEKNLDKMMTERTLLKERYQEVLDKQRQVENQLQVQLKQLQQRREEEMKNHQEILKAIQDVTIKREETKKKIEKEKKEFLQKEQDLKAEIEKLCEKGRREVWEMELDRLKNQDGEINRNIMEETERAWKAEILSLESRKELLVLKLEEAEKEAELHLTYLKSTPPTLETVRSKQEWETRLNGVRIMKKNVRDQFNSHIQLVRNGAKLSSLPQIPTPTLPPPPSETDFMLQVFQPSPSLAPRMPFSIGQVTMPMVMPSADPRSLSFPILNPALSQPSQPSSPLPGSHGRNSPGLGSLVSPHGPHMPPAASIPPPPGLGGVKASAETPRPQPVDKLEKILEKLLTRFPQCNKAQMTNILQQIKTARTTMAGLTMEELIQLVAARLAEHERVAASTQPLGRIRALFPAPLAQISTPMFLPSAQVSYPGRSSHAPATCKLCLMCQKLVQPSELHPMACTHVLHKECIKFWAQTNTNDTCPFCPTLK

These are yes or no findings as the source states them, for the method shown. In cells and extracts the contact can be indirect. Some entries that bind do so weakly or less than the wild type.

For the assay, the target named is Flag-RNF214 (human) (UniProt Q8ND24). Briefly: co-IP; HA-tagged and Flag-tagged RNF214 expressed together; wild type and coiled-coil deletion mutant; cells not told in the text shown.

Consider Flag-RNF214 (from UniProt Q8ND24 1-703), for which the binding result is “binds”.
